PubChem BioAssay AID1259267, Sanger Institute, 2017
Screen: 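Which kinases and bowel-cancer genes GP5D cells need, with or without anchor drugs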 (primary screen). Cells: human GP5D colorectal cancer cells. Reagents: siRNA pool against human genes. Treatment: anchor drugs at low dose: BYL719 1 µM, cetuximab 5 µg/ml, trametinib 10 nM, or DMSO vehicle. Read-out: 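Mean replicate viability versus non-targeting pool, given as knock-down-alone robust z-score, DMSO fraction, and synergy with low-dose BYL719, cetuximab or trametinib (1 µM, 5 µg/ml, 10 nM)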. Reading the numbers: robust z-score, knock-down alone and viability with DMSO: higher = more viable cells; synergy score with trametinib and synergy score with BYL719 and synergy score with cetuximab: higher = stronger synthetic lethal synergy with drug. Call rule: 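Active (essential alone) if knock-down without drug gives robust z-score under -3; drug synergy does not count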. Meaning of the calls: active = essential alone; inactive = not essential.
Here is a random part of 794 reagents. In the full data, 9 (1.1%) are marked active. 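Viability capped at 1; calls reflect loss of viability from knock-down alone, not synergy with drugs.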 Unmarked entries are inactive. Not given: the amount of reagent, the time to read-out.

Target gene,"robust z-score, knock-down alone",viability with DMSO (fraction of control),synergy score with trametinib,synergy score with BYL719,synergy score with cetuximab
MUSK (GeneID 4593),-2.49,0.299,-0.115,-0.192,-0.127
ACVR1B (GeneID 91),0.158,0.86,0.128,-0.1,-0.0269
RPS6KA1 (GeneID 6195),0.631,0.961,0.236,0.0627,0.1
CDK7 (GeneID 1022),0.817,1,0.133,-0.108,-0.142
MAP3K7 (GeneID 6885),-1.42,0.525,0.138,-0.0842,0.0154
TBCK (GeneID 93627),0.817,1,-0.197,-0.33,-0.142
MAP2K5 (GeneID 5607),0.817,1,0.185,-0.088,-0.142
NEK10 (GeneID 152110),0.817,1,-0.0212,-0.253,-0.103
BRAF (GeneID 673),-1.61,0.485,0.0775,-0.155,0.0161
ACVR2B (GeneID 93),-1.32,0.547,-0.273,-0.367,-0.353
RTN4 (GeneID 57142),0.817,1,-0.0966,-0.329,-0.142
ACVRL1 (GeneID 94),0.811,0.999,0.0908,-0.189,-0.0233
MSR1 (GeneID 4481),0.817,1,-0.0646,0.0624,-0.131
SIK2 (GeneID 23235),-0.529,0.715,-0.165,-0.318,-0.207
MAK (GeneID 4117),-2.35,0.33,0.0782,-0.249,-0.276
TNK1 (GeneID 8711),0.729,0.981,0.0917,-0.207,-0.158
ZAP70 (GeneID 7535),0.228,0.875,0.303,-0.00389,0.0933
CDK1 (GeneID 983),0.817,1,-0.0534,-0.361,-0.142
EFNB3 (GeneID 1949),-0.469,0.728,-0.228,0.0167,-0.0128
ABL2 (GeneID 27),-0.189,0.787,-0.193,-0.295,-0.146
BMPR2 (GeneID 659),0.307,0.892,0.283,0.214,0.234
RIOK2 (GeneID 55781),0.701,0.975,0.182,-0.184,-0.0409
EPHA10 (GeneID 284656),-0.749,0.668,0.146,0.0338,0.00959
NME6 (GeneID 10201),-1.63,0.481,-0.143,-0.127,-0.0472
NME7 (GeneID 29922),0.817,1,-0.0995,-0.361,-0.142
DDR2 (GeneID 4921),-0.358,0.751,0.00602,-0.372,-0.0411
LIMK1 (GeneID 3984),0.817,1,-0.197,-0.27,-0.142
MKNK2 (GeneID 2872),0.35,0.901,0.0485,-0.18,-0.17
ALK (GeneID 238),-1.59,0.491,0.134,-0.0345,-0.00574
KHK (GeneID 3795),0.817,1,0.0985,-0.096,-0.142
PTK6 (GeneID 5753),0.205,0.87,-0.101,-0.138,-0.0994
GRK6 (GeneID 2870),0.246,0.879,0.0293,-0.145,0.102

In a second layout: entries from further up.
| Target gene | robust z-score, knock-down alone | viability with DMSO (fraction of control) | synergy score with trametinib | synergy score with BYL719 | synergy score with cetuximab |
| --- | --- | --- | --- | --- | --- |
| BRAF (GeneID 673) | -1.61 | 0.485 | 0.0775 | -0.155 | 0.0161 |
| ACVR2B (GeneID 93) | -1.32 | 0.547 | -0.273 | -0.367 | -0.353 |
| RTN4 (GeneID 57142) | 0.817 | 1 | -0.0966 | -0.329 | -0.142 |

Further records:
Target gene,"robust z-score, knock-down alone",viability with DMSO (fraction of control),synergy score with trametinib,synergy score with BYL719,synergy score with cetuximab
EPHA5 (GeneID 2044),0.817,1,0.0284,-0.0863,-0.142
NR2F2 (GeneID 7026),0.54,0.941,0.289,0.119,0.0173
CDK12 (GeneID 51755),0.817,1,-0.086,-0.261,-0.117
JAK3 (GeneID 3718),0.817,1,0.236,0.0552,-0.0212
EPHB6 (GeneID 2051),0.817,1,0.177,-0.146,0.0425
PHKG1 (GeneID 5260),-0.442,0.733,-0.15,-0.299,-0.0808
NUP62 (GeneID 23636),-2.13,0.376,0.0652,-0.328,0.0391
PFKP (GeneID 5214),0.817,1,0.175,0.00775,0.0824
JAK1 (GeneID 3716),0.817,1,-0.0984,-0.235,-0.142
PKIA (GeneID 5569),0.817,1,-0.197,-0.214,-0.142
PRKG1 (GeneID 5592),-0.777,0.662,-0.468,-0.577,-0.334
IP6K1 (GeneID 9807),0.374,0.906,-0.122,-0.421,-0.223
JAK2 (GeneID 3717),0.79,0.994,-0.197,-0.0211,-0.147
CDK19 (GeneID 23097),0.817,1,-0.197,-0.152,-0.142
WHR1 (GeneID 8859),0.817,1,-0.0766,-0.181,-0.0723
AGK (GeneID 55750),0.817,1,0.0169,-0.155,-0.126
EGFR (GeneID 1956),-1.35,0.541,-0.144,-0.244,-0.298
STK10 (GeneID 6793),0.817,1,0.0219,-0.00772,-0.142
CHKB (GeneID 1120),0.817,1,-0.109,-0.246,-0.142
EPHB3 (GeneID 2049),-1.07,0.601,-0.014,-0.404,-0.219
GSK3B (GeneID 2932),-0.195,0.786,-0.0886,-0.247,-0.202
PHKA1 (GeneID 5255),0.747,0.985,0.0284,-0.0121,-0.117
PIK3CA (GeneID 5290),-0.0831,0.809,0.19,-0.105,-0.0916
INSRR (GeneID 3645),0.521,0.937,0.0891,-0.245,0.0488
SOS2 (GeneID 6655),0.817,1,0.125,0.0383,-0.0495
DYRK2 (GeneID 8445),0.817,1,0.434,-0.18,0.246
CHD4 (GeneID 1108),-2.57,0.282,0.0722,-0.0491,0.0466
CDKN2D (GeneID 1032),0.788,0.994,0.234,0.0125,0.0319
DLG4 (GeneID 1742),0.579,0.949,0.164,-0.394,-0.00189
ADK (GeneID 132),0.817,1,0.162,-0.00571,-0.0376
PRKD1 (GeneID 5587),0.817,1,0.164,-0.067,-0.0172
